Literature values as cited in patent US12296049B2, “Immediate release dosage form” (Kenvue Brands LLC, priority 2019, dated 2025).

Conditions: after oral administration, typical

COc1ccc2cc([C@H](C)C(=O)O)ccc2c1 [naproxen sodium]
Time to maximum plasma concentration: 1 to 2 h
